Test results reported in PubChem BioAssay (EPA / NIEHS).
Inconclusive means that the source gave no clear call. Such entries were picked first, then a sample of the others. A potency beside an inconclusive call is a rough fit, not a confirmed value. Active and inactive are the calls of the source. How the source made its calls: active means hit-call score of the fitted dose curve at least 0.9, where 1 is the maximum; inconclusive means response in the unintended direction; inactive means score below 0.9.

Chains of the proteins cited; added tags and fusions are not shown. Lines headed by an entry give the natural chain unless they say otherwise; changes in a name come on top.
UniProt P51449: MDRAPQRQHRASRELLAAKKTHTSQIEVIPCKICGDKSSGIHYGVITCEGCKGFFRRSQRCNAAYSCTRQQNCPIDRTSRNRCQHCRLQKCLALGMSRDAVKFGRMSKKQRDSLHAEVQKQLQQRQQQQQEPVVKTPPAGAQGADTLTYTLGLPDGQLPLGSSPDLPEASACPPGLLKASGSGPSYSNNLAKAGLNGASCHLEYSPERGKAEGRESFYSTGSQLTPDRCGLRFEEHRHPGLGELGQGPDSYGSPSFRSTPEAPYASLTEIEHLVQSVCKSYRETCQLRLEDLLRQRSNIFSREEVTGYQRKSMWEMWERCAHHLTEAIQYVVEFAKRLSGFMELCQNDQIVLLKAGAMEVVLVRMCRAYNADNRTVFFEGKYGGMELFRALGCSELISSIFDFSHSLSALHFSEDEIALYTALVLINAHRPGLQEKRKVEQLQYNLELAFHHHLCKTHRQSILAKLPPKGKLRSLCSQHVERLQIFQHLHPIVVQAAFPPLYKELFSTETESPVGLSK

Each molecule was assayed against human RAR-related Orphan Receptor gamma (RORg), RORC (gene 6097) (UniProt P51449) (assay: ATG_RORg_TRANS: Attagene TRANS-FACTORIAL HepG2 Assay for human RAR-related Orphan Receptor gamma (RORg) (AID 2283011);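 on AC50: potency for induction of reporter transcripts above DMSO so activators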).
Experimental: ATG_TRANS is a cell-based, multiplexed-readout assay that uses HepG2, a human liver cell line, with measurements taken at 24 hours after chemical dosing in a 24-well plate.ATG_RORg_TRANS is one of 30 assay component(s) measured or calculated from the ATG_TRANS assay. It is designed to make measurements of mRNA induction, a form of inducible reporter, as detected with fluorescence intensity signals by Reverse transcription polymerase chain reaction (RT-PCR) and Capillary electrophoresis technology.Data from the assay component ATG_RORg_TRANS was analyzed into 1 assay endpoint. This assay endpoint, ATG_RORg_TRANS, was analyzed in the positive analysis fitting direction relative to DMSO as the negative control and baseline of activity. Using a type of inducible reporter, measures of mRNA for gain-of-signal activity can be used to understand the reporter gene at the transcription factor-level as they relate to the gene RORC. Furthermore, this assay endpoint can be referred to as a primary readout, because this assay has produced multiple assay endpoints where this one serves a reporter gene function. To generalize the intended target to other relatable targets, this assay endpoint is annotated to the nuclear receptor intended target family, where the subfamily is orphan.
Human liver HepG2 cells are transiently transfected with multiple reporter transcription units (MRTUs) in 6-well plates using FuGene 6 reagent (Roche; 3 ml FuGene/1 mg DNA). The MRTU constructs are regulated by a cis-regulating element (promoter). […] A major difference between the CIS and TRANS system is that in CIS activities of endogenous TFs are measured, whereas the TRANS assay evaluates changes in activities of exogenous, chimeric NR-Gal4 proteins. […] At the end of 24 hour incubation, total RNA was isolated using TriZol reagent (Invitrogen). The isolated RNA is then reverse-transcribed using oligo(dT) primer and Mo-MLV reverse transcriptase (Invitrogen) with DNAse I (Ambion) treatment for 30 min. The one-tenth of the produced cDNA was amplified by PCR using Taq DNA polymerase (Invitrogen) and two reporter sequence-specific primers. The PCR products were fluorescently labeled by primer extension with 6-arboxyfluorescein (6-FAM) 5'-labeled reporter sequence-specific primer (2 min at 95 C, 20 s at 68 C and 10 min at 72 C) and these products were digested with 5U of HpaI (New England Biolabs) for 2h at 37 C. The fragments were purified using Qiaquick PCR columns (Qiagen), analyzed on an ABI 3130xL genetic analyzer (Applied Biosystems) with peak positions identified by using a set of X-rhodamine (ROX)-labeled MapMarker1000 molecular weight standards (BioVentures). The raw capillary electrophoresis data was processed using Attagraph software (Attagene).

Structure (SMILES)	AC50	outcome
OCc1cccc(Oc2ccccc2)c1	inconclusive: 100 µM	
Cc1ccccc1CCO		inactive
CCCCCCOc1cc(C)c(O)c(C)c1C	inconclusive: 2.53 µM	
O=C1Cc2ccccc2N1c1c(Cl)cccc1Cl	inconclusive: 100 µM	
N#CCN(CC#N)CCN(CC#N)CC#N	inconclusive: 100 µM	
O=C(O)C(c1ccc(Cl)cc1)c1ccc(Cl)cc1	inconclusive: 100 µM	
COc1ccc(C(Cl)=C(c2ccc(OC)cc2)c2ccc(OC)cc2)cc1		inactive
CC(C)c1ccc2ncccc2c1	inconclusive: 100 µM	
COc1ccc(N=Nc2cc(C)c(N=Nc3ccc(S(=O)(=O)O)cc3)cc2OC)cc1		inactive
O=C1CCCC=CCCCCCCCCCC1	inconclusive: 150 µM	
c1ccc2ncccc2c1		inactive
CC(=O)C(C)O (stereo not given)	inconclusive: 100 µM	
CCOC(=O)c1ccccc1C		inactive
CCCCC(CC)COC(=O)CCCCCCCCC(=O)OCC(CC)CCCC (stereo not given)		inactive
CC(C)=CCCC(C)CCOC=O (stereo not given)	inconclusive: 184 µM	
O=C1OC2(c3ccccc31)c1ccc(O)c(Br)c1Oc1c2ccc(O)c1Br		inactive

Structure (SMILES)	AC50	outcome
C#C[C@]1(O)CC[C@H]2[C@@H]3CCC4=Cc5oncc5C[C@]4(C)[C@H]3CC[C@@]21C	inconclusive: 7.8 µM	
COC(=O)/C=C/C(C)=C\C=C\C(C)=C\C=C\C=C(C)\C=C\C=C(C)\C=C\C(=O)O	inconclusive: 100 µM	
O=C(Cl)c1c(Cl)c(Cl)c(C(=O)Cl)c(Cl)c1Cl		inactive
C=CC(F)(F)C(F)(F)C(F)(F)C(F)(F)F	inconclusive: 150 µM	
Fc1ccccc1[C@@H](F)COC1CCC(Nc2ncnc3[nH]ncc23)CC1 (stereo not given in full)	inconclusive: 19.8 µM	
CCCCC(CC)COC(=O)c1ccccc1O (stereo not given)		inactive
CN(C)C=O	inconclusive: 24.7 µM	
CC(C)CCCC(C)(C)O		inactive
CCCC(CC)c1ccccc1 (stereo not given)		inactive
CCCCC(CC)COC(=O)CCCCC(=O)OCC(CC)CCCC (stereo not given)	inconclusive: 0.0101 µM	
O=C1c2ccccc2C(=O)c2c(O)c(O)cc(O)c21	inconclusive: 100 µM	
CC(C)(C)C1CCC(O)CC1 (stereo not given)	inconclusive: 100 µM	
OC[C@@H](O)[C@@H](O)[C@H](O)[C@H](O)CO	inconclusive: 0.698 µM	
C=CC(=O)OCCC(=O)O		inactive
CCOCOCC	inconclusive: 100 µM	
N[C@H]1C(O)O[C@H](CO)[C@H](O)[C@@H]1O (stereo not given in full)	inconclusive: 0.0825 µM	

Grouped by structure, the compounds so far with fluorine.
Structure (SMILES)	AC50	outcome
C=CC(F)(F)C(F)(F)C(F)(F)C(F)(F)F	inconclusive: 150 µM	
Fc1ccccc1[C@@H](F)COC1CCC(Nc2ncnc3[nH]ncc23)CC1 (stereo not given in full)	inconclusive: 19.8 µM	
